PubChem BioAssay AID686937, Drosophila RNAi Screening Center – 2013
The screen tested about 23,000 reagents; shown is a random part of those that have a named target and a result. 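Reduced-secretion tags in replicate 1 do not always agree with the z-scores; no criterion for assigning the tags was given.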 A plus sign joins genes that one reagent is predicted to hit. Further read-outs or replicates are left out here. No sequences are given here. Not given: the amount of reagent.

- Assay: 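Genes whose loss weakens secretory pathway function in fly cells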 (primary screen)
- Cells: Drosophila S2 cells expressing secreted horseradish peroxidase
- Knock-down reagent: long dsRNA against Drosophila genes
- Timing: about 5.5 days (5 days dsRNA, then 12 h reporter induction)
- Conditions: reporter expression induced after 5 days of dsRNA, read 12 h later; inducer not stated
- Measured: 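After 5 days of dsRNA and 12 h of reporter induction, medium peroxidase read by chemiluminescence and scored as per-plate z-score; higher values mean more reporter released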
- Direction: z-score: higher = more reporter secreted into medium

z-score, replicate 1, by predicted target and reagent
dan: DRSC14406 0.26
mgl: DRSC17800 0.3; DRSC17823 0.19; DRSC17859 0.51; DRSC18004 0.51
CG40498: DRSC07786 0.04
CG5435: DRSC02860 0.02
CG5853: DRSC01103 0.24; DRSC02906 0.58
CG11164: DRSC19392 0.01
CG2839: DRSC00544 0.42
mRpS11: DRSC15732 -0.31
CG6059: DRSC15958 0.46
Prp39: DRSC15133 0.37
E(Pc): DRSC05281 -2.74; DRSC07408 -4.5
CG1662: DRSC19754 0.32
CG32638: DRSC18968 0.15
CG5770: DRSC06954 0.27
CG17097: DRSC02569 0.04
magu: DRSC06832 0.27
CG4783: DRSC15644 -1.5
Ppcs: DRSC14127 0.34
croc: DRSC11884 0.26
EcR: DRSC04906 0.69; DRSC04910 0.37
eEF2: DRSC03737 -3.31
neb: DRSC03577 0.18
Ir56c: DRSC06544 0.26
plum: DRSC16054 0.34
CG13043: DRSC09924 0.08
Gp150: DRSC04618 0.08
RyR: DRSC07543 0.13
iav: DRSC18363 0.1
ems: DRSC16941 0.32
CG31760: DRSC02590 0.41
DnaJ-H: DRSC03273 0.25
CG12942: DRSC06253 0.16
CG13921: DRSC08390 -0.21
lncRNA:iab8: DRSC13187 0.48; DRSC22252 0.07
CG34305: DRSC11995 -0.21
CG33232 (retired record): DRSC08187 0.29; DRSC08495 0.48
Tpr2: DRSC03461 0.14
lap: DRSC12628 -2.62
IntS9: DRSC10493 0.47
CG33964 + CG13175: DRSC06300 0.31; DRSC06301 0.17; DRSC07184 0.24
Dek: DRSC07418 0.18
sev: DRSC20372 0.39
CG10510: DRSC11614 -0.1
Osi5: DRSC12276 0.12
PGRP-LC: DRSC08980 0.09; DRSC10416 0.53; DRSC10417 0.52

Entries listed so far whose gene name begins with P or p (6):
z-score, replicate 1, by predicted target and reagent
Prp39: DRSC15133 0.37
Ppcs: DRSC14127 0.34
plum: DRSC16054 0.34
PGRP-LC: DRSC08980 0.09; DRSC10416 0.53; DRSC10417 0.52
